In PubChem BioAssay AID248 (DTP/NCI, 2004):
The list does not hold the whole screen: it gathers tests that were run many times, whatever their T/C, doses with no T/C, and many T/C values between a quarter and a half above the control. Other doses and runs of a compound stand elsewhere. T/C: endpoint of the treated group in % of that of the vehicle group. Some doses have a count of surviving animals in place of a T/C: the source files T/C as zero there, which appears to mark a toxic dose or a test without result, not a measured value. Some doses without a T/C left all or most animals alive at the check, yet need not have been tolerated: survival well below the control is almost never listed, so the zero probably covers shortened survival too. Survivors were counted at the toxicity check, usually on the fifth day, unless a day is given; later deaths do not show. Schedules are NCI's codes, read here as Q, the interval in days (D) or hours (H), X, the number of doses. Some schedule codes hold Z or #, which are not explained here. Some molecules as drawn cover several salts, stereoisomers or complexes of the source; a dose is that of the sample tested. Some doses were run more than once; the results are listed from low to high. For survival time, this PubChem deposit counts one and a half times the control or more as active, and values a quarter to a half above the control carry no call in these data; other NCI protocols may use other cut-offs.

Test system: L1210 leukemia ip in BDF1 mice, survival T/C
Experiment: NCI In Vivo Anticancer Drug Screen. Data for tumor model L1210 Leukemia (intraperitoneal) in B6D2F1 (BDF1) mice
Conditions: higher T/C = longer survival
[1] = T/C endpoint: mean survival time, dose: 400.0 mg/kg/injection, schedule: Q04DX003 (ip), vehicle: saline with Tween-80
[2] = T/C endpoint: mean survival time, dose: 400.0 mg/kg/injection, schedule: Q01DX009 (ip), vehicle: Klucel (hydroxypropylcellulose) (HPC)
[3] = T/C endpoint: mean survival time, dose: 400.0 mg/kg/injection, schedule: Q01DX001 (ip), vehicle: saline
[4] = T/C endpoint: mean survival time, dose: 300.0 mg/kg/injection, schedule: Q01DX001 (ip), vehicle: saline
[5] = T/C endpoint: mean survival time, dose: 100.0 mg/kg/injection, schedule: Q04DX003 (ip), vehicle: saline with Tween-80
[6] = T/C endpoint: mean survival time, dose: 60.0 mg/kg/injection, schedule: Q01DX Z (ip), vehicle: methylcellulose (MC)

Cc1cc(=O)[nH]c2ccccc12
survivor count [1]: 3 of 6

CCCCCCCCCCCCNC(C)=O
survivor count [2]: 2 of 3

CC1(C)CCCC(C)(C)N1
survivor count (T/C endpoint: mean survival time, dose: 100.0 mg/kg/injection, schedule: Q01DX001 (ip), vehicle: saline): 0 of 4 | survivor count (T/C endpoint: mean survival time, dose: 200.0 mg/kg/injection, schedule: Q01DX001 (ip), vehicle: saline): 0 of 4 | survivor count [3]: 0 of 4

CC(C)(COC(=O)c1ccc(N)cc1)NC1CCCCC1
survivor count (T/C endpoint: mean survival time, dose: 150.0 mg/kg/injection, schedule: Q01DX001 (ip), vehicle: saline): 3 of 6 | survivor count [4]: 0 of 6

N=C(N)SCCON1C(=O)c2ccccc2C1=O
survivor count [3]: 0 of 4

NC(=O)c1c(F)c(F)c(Oc2c(F)c(F)c(Oc3c(F)c(F)c(C(N)=O)c(F)c3F)c(F)c2F)c(F)c1F
survivor count [5]: 6 of 6 | survivor count (T/C endpoint: mean survival time, dose: 200.0 mg/kg/injection, schedule: Q04DX003 (ip), vehicle: saline with Tween-80): 6 of 6 | survivor count [1]: 6 of 6

O=C(Nc1ccc(C2=NCCN2)cc1)c1ccc(C(=O)Nc2ccc(C3=NCCN3)cc2)c2ccccc12
T/C (T/C endpoint: mean survival time, dose: 15.0 mg/kg/injection, schedule: Q01DX Z (ip), vehicle: methylcellulose (MC)): 125 % of control | T/C [6]: 139 % of control | survivor count [6]: 2 of 6 | survivor count (T/C endpoint: mean survival time, dose: 120.0 mg/kg/injection, schedule: Q01DX Z (ip), vehicle: methylcellulose (MC)): 0 of 6

ClC1(Cl)Cc2ccccc21
T/C [5]: 134 % of control | T/C [1]: 135 % of control

S=c1[nH]c(=S)c2[nH]cnc(=S)c2[nH]1
survivor count (T/C endpoint: mean survival time, dose: 50.0 mg/kg/injection, schedule: Q01DX Z (ip), vehicle: carboxymethylcellulose (CMC)): 3 of 6 | survivor count (T/C endpoint: mean survival time, dose: 100.0 mg/kg/injection, schedule: Q01DX Z (ip), vehicle: carboxymethylcellulose (CMC)): 1 of 6 | survivor count (T/C endpoint: mean survival time, dose: 200.0 mg/kg/injection, schedule: Q01DX Z (ip), vehicle: carboxymethylcellulose (CMC)): 0 of 6

NC(=O)C[CH2][Sn]([c]1ccccc1)([c]1ccccc1)[c]1ccccc1
survivor count (T/C endpoint: mean survival time, dose: 200.0 mg/kg/injection, schedule: Q01DX009 (ip), vehicle: saline with Tween-80): 0 of 3

N=C([Se])c1ncn(C2OC(CO)C(O)C2O)c1N (configuration not stated)
survivor count (T/C endpoint: mean survival time, dose: 100.0 mg/kg/injection, schedule: Q01DX005 (ip), vehicle: saline): 0 of 6 | survivor count (T/C endpoint: mean survival time, dose: 200.0 mg/kg/injection, schedule: Q01DX005 (ip), vehicle: saline): 0 of 6

O=C(O)c1cccc(N=Nc2ccc(N(CCCl)CCCl)cc2)c1
survivor count (T/C endpoint: median survival time, dose: 100.0 mg/kg/injection, schedule: Q01DX009 (ip), vehicle: Klucel (hydroxypropylcellulose) (HPC)): 5 of 6 | survivor count (T/C endpoint: median survival time, dose: 200.0 mg/kg/injection, schedule: Q01DX009 (ip), vehicle: Klucel (hydroxypropylcellulose) (HPC)): 2 of 6 | survivor count (T/C endpoint: median survival time, dose: 400.0 mg/kg/injection, schedule: Q01DX009 (ip), vehicle: Klucel (hydroxypropylcellulose) (HPC)): 1 of 6

CCCCCCCCCCOC(=O)C[n+]1cccc(C(=O)Nc2ccc(Cl)cc2)c1
survivor count (T/C endpoint: mean survival time, dose: 100.0 mg/kg/injection, schedule: Q04DX003 (ip), vehicle: other): 1 of 6 | survivor count (T/C endpoint: mean survival time, dose: 200.0 mg/kg/injection, schedule: Q04DX003 (ip), vehicle: other): 0 of 6 | survivor count (T/C endpoint: mean survival time, dose: 400.0 mg/kg/injection, schedule: Q04DX003 (ip), vehicle: other): 0 of 6

CC(=O)c1ccc2c(c1)CCN2
survivor count [2]: 2 of 6

N/C(=N\O)c1ccc2ccc3cccnc3c2n1
survivor count [1]: 2 of 4

CCC(CCl)NC(CC(C)C)CC(C)C (configuration not stated)
survivor count [4]: 0 of 6 and 2 of 6
